Results reported in patent US9994515B2, “Aryl naphthyl methanone oxime(s) and process for preparation thereof” (Council of Scientific & Industrial Research, priority 2013, dated 2018).
Where two headings read alike, the source gives them in different places.

Tests used:
K562 = assay: MTT cytotoxicity assay in K562 cells; type: cell-based; details: Homo sapiens
HL60 = assay: MTT cytotoxicity assay in HL-60 cells; type: cell-based; details: Homo sapiens

## Cc1ccc(NC(=O)c2ccc(CN3CCN(C)CC3)cc2)cc1Nc1nccc(-c2cccnc2)n1 [Imatinib, reference compound]
K562; K562, 48 h, Table 3, MTT, 48 h, 10 point dose response, read-out: IC 50 K562
  IC50: 5.16 µM
K562; K562, Table 2
  IC50: 7.53 µM
HL60; HL-60, 48 h, Table 3, MTT, 48 h, 10 point dose response, read-out: IC 50 HL 60
  IC50: 9.63 µM
HL60; HL-60, Table 2
  IC50: 9.63 µM
